Test results reported in the supplement of paper PMC12823440, “Inhibitors supercharge kinase turnover through native proteolytic circuits” (Nature, 2025).
Structures can show the parent of a compound that is named as a salt. This is one part of the list. Hit calls seldom repeat between salt and free forms of one compound.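 In K562 cells expressing nanoluciferase-fused kinases, luminescence was recorded at 4 h intervals between 2 and 18 h, normalized as percent of control with DMSO at 100% and a positive control at 0%. A significant (2 sigma) signal drop marks a time point as decreased. The authors' rule for a hit is not shown and takes in more than the number of time points.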

Protein sequences, listed by entry. Tags and fused reporters are not part of them. Lines headed by an entry give the natural chain unless they say otherwise; changes in a name come on top.
UniProt P11362, whole entry, looked up: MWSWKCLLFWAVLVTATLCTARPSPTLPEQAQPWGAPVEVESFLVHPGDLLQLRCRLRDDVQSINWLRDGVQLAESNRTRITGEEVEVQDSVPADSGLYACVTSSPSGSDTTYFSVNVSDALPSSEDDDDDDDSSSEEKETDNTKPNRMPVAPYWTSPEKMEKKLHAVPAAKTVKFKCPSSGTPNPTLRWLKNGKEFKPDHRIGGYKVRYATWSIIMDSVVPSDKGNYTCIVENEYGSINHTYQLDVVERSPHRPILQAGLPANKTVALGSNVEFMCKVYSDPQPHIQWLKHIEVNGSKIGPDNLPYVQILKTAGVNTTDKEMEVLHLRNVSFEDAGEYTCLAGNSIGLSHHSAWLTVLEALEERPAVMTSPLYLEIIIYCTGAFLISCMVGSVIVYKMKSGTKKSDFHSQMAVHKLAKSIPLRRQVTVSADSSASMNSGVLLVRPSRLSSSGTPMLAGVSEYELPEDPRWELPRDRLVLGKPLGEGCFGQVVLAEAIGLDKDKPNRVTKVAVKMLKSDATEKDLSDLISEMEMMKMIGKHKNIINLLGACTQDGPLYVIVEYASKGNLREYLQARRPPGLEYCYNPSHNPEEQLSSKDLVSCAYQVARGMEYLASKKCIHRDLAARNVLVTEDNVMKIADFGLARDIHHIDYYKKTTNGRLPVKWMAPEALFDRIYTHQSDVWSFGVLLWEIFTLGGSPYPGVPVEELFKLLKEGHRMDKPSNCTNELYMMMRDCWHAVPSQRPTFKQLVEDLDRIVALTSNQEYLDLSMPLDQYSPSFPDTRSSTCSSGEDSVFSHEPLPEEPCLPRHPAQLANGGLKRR
UniProt P21802, whole entry, looked up: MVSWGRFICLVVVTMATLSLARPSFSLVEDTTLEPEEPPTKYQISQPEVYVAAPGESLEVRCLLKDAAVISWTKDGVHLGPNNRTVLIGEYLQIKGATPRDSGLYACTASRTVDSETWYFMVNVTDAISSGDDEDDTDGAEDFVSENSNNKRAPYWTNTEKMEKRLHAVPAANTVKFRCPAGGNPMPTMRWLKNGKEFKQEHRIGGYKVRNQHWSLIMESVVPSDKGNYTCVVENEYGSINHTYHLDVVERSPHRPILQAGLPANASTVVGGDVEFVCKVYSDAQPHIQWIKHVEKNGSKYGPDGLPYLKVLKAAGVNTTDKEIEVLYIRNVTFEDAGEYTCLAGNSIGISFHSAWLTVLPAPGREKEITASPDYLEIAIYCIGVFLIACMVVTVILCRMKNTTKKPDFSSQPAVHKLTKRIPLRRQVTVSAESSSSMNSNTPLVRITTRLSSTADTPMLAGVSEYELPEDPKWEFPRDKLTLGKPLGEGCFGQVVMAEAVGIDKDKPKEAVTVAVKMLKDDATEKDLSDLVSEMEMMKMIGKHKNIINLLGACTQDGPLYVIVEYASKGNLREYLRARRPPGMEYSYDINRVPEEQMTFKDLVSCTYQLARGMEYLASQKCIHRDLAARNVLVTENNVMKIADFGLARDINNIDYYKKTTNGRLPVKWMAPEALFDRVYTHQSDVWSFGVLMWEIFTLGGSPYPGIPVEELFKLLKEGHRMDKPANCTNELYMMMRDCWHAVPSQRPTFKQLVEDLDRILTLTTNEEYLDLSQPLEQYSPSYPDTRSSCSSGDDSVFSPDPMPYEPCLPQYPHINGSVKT
UniProt P22607, whole entry, looked up: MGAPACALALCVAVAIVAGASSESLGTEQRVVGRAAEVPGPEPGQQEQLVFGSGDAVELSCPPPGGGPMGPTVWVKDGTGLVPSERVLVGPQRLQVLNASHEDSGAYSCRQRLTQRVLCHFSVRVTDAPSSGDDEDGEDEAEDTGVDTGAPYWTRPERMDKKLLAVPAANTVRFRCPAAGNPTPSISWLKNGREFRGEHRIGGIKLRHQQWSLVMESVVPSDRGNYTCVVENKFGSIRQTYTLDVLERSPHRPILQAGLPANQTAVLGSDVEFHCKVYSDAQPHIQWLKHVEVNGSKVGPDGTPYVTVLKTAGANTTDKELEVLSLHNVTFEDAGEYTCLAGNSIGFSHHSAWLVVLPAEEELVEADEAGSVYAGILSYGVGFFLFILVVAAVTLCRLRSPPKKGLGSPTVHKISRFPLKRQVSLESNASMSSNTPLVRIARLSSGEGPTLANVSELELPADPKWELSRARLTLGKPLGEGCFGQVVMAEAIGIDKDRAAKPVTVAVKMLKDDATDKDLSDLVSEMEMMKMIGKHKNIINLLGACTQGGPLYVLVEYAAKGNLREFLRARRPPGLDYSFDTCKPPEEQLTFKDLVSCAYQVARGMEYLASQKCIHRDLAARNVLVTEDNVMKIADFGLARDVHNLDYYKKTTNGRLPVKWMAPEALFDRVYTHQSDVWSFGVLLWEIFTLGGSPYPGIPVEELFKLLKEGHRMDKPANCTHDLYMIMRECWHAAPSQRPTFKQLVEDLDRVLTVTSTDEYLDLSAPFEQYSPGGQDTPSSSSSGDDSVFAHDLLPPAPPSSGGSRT
UniProt P06241, whole entry, looked up: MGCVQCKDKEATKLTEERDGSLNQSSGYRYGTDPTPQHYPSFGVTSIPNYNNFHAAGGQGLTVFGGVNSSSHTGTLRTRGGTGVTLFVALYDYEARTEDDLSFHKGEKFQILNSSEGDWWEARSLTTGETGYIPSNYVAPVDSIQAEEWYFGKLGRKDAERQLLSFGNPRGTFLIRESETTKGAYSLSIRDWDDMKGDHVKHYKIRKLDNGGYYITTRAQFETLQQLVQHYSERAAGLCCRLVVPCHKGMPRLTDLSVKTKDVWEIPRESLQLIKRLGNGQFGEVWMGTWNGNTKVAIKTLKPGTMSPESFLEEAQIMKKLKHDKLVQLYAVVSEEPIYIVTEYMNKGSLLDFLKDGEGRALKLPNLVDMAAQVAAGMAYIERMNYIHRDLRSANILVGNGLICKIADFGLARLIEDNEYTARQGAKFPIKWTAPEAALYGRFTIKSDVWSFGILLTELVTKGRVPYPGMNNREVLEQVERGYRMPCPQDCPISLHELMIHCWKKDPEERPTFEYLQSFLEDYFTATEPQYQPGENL
UniProt P49840: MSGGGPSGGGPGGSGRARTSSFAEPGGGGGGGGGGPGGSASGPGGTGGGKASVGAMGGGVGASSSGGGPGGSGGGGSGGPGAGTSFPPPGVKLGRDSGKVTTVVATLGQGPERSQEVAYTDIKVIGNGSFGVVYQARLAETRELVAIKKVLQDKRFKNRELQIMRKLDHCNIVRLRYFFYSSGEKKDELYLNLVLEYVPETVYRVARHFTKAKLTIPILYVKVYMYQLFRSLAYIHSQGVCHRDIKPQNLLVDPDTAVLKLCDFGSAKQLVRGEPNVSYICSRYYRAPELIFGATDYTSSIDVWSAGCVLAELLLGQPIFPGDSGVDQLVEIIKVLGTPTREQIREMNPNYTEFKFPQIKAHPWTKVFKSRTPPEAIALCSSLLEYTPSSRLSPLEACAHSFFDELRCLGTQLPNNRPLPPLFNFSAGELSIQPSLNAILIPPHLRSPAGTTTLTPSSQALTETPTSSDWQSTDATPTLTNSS
UniProt Q9Y616: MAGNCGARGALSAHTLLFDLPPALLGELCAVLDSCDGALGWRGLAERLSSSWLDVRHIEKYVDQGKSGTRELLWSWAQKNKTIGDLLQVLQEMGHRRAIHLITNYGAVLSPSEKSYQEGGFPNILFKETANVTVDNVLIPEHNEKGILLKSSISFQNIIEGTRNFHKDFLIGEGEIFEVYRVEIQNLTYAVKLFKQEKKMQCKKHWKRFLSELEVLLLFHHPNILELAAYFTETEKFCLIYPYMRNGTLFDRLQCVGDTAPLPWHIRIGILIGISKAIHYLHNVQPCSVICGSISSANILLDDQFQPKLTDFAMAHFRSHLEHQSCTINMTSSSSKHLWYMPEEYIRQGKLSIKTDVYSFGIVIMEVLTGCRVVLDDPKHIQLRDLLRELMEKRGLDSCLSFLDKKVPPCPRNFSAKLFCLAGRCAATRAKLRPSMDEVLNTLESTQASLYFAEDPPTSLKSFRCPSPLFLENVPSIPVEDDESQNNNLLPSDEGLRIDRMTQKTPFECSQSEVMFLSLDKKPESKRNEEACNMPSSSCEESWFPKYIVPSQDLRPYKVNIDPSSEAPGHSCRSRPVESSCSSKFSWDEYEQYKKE
UniProt P06239: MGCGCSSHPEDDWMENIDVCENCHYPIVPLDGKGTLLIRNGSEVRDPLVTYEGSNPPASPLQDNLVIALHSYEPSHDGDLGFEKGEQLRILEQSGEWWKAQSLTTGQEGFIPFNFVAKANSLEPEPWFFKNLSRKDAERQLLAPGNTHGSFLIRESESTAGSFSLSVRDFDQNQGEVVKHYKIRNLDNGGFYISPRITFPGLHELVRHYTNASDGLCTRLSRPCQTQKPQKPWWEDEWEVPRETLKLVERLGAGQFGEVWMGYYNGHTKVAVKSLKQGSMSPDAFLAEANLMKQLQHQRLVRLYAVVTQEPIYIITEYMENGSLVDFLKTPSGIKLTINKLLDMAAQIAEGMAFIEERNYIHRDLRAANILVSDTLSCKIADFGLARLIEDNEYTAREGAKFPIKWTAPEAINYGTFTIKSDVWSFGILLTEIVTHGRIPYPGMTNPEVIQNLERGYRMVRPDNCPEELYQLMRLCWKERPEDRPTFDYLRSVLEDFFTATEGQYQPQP
UniProt P53671: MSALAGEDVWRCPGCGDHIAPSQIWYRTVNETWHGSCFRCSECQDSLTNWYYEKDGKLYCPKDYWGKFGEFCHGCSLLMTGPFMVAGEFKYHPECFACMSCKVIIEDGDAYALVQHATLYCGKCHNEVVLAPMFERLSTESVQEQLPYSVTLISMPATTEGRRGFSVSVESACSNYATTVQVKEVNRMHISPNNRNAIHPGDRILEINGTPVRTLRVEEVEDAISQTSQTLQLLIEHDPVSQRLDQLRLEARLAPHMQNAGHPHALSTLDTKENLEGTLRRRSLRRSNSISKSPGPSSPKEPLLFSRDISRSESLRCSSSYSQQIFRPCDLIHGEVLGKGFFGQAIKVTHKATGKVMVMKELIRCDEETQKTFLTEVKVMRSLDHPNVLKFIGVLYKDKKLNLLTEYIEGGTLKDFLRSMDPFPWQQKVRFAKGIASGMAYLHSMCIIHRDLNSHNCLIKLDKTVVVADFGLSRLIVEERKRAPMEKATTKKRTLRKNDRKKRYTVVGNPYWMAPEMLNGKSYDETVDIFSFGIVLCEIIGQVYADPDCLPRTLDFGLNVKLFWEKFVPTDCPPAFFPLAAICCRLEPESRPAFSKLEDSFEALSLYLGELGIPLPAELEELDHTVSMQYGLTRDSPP
UniProt P07948: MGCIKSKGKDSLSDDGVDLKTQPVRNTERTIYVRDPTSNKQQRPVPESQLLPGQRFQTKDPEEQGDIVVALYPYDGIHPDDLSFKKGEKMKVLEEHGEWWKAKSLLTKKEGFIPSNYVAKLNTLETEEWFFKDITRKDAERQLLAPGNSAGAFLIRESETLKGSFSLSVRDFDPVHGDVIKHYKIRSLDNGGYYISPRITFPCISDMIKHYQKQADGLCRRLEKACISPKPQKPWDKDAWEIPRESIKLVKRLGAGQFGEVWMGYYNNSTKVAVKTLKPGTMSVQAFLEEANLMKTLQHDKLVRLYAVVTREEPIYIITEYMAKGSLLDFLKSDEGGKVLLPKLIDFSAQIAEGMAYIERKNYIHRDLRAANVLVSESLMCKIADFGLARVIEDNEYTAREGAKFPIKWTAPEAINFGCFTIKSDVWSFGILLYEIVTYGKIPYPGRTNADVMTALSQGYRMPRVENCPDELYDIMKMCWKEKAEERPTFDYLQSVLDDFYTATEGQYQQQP
UniProt Q12851: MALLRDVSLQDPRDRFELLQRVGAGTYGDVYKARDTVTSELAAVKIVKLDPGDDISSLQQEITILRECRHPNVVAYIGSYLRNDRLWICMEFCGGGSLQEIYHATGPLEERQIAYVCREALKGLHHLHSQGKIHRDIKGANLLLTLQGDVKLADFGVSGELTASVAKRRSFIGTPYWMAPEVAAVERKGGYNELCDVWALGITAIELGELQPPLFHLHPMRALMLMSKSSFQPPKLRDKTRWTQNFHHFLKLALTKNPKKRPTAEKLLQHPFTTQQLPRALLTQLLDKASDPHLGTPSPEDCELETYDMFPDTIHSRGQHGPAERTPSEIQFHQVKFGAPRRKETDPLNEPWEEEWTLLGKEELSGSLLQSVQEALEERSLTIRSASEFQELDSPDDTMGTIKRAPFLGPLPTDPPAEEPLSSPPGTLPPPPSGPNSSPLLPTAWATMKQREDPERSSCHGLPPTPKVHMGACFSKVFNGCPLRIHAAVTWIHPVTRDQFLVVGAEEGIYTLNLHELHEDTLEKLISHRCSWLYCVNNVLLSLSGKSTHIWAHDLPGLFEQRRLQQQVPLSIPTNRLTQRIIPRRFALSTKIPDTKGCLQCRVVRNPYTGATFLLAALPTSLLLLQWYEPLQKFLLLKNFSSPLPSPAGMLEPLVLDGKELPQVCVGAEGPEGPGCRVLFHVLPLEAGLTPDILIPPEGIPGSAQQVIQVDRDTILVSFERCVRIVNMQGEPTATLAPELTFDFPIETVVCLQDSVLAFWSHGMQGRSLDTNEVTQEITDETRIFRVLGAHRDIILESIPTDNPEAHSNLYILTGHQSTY

What was measured:
Experiment in all cases: kinase-Nluc reporter destabilization hit call (1 = scored as downregulated) (binary); higher = compound decreases kinase abundance
Conditions in all cases: K562, 2-18 h
[1] = molecular target: ERN1 (UniProt O75460)
[2] = molecular target: FGFR1 (UniProt P11362)
[3] = molecular target: FGFR2 (UniProt P21802)
[4] = molecular target: FGFR3 (UniProt P22607)
[5] = molecular target: FGR (UniProt P09769)
[6] = molecular target: FLT3 (UniProt P36888)
[7] = molecular target: FYN (UniProt P06241)
[8] = molecular target: GSK3A (UniProt P49840)
[9] = molecular target: HER2 (UniProt P04626)
[10] = molecular target: INSRR (UniProt P14616)
[11] = molecular target: IRAK3 (UniProt Q9Y616)
[12] = molecular target: JAK1 (UniProt P23458)
[13] = molecular target: LCK (UniProt P06239)
[14] = molecular target: LIMK1 (UniProt P53667)
[15] = molecular target: LIMK2 (UniProt P53671)
[16] = molecular target: LMTK2 (UniProt Q8IWU2)
[17] = molecular target: LYN (UniProt P07948)
[18] = molecular target: MAP2K1 (UniProt Q02750)
[19] = molecular target: MAP2K2 (UniProt P36507)
[20] = molecular target: MAP4K2 (UniProt Q12851)

SMILES	kinase-Nluc reporter destabilization hit call ([1]; 10 µM)	kinase-Nluc reporter destabilization hit call ([2]; 10 µM)	kinase-Nluc reporter destabilization hit call ([3]; 10 µM)	kinase-Nluc reporter destabilization hit call ([4]; 10 µM)	kinase-Nluc reporter destabilization hit call ([5]; 10 µM)	kinase-Nluc reporter destabilization hit call ([6]; 10 µM)	kinase-Nluc reporter destabilization hit call ([7]; 10 µM)	kinase-Nluc reporter destabilization hit call ([8]; 10 µM)	kinase-Nluc reporter destabilization hit call ([9]; 10 µM)	kinase-Nluc reporter destabilization hit call ([10]; 10 µM)	kinase-Nluc reporter destabilization hit call ([11]; 10 µM)	kinase-Nluc reporter destabilization hit call ([12]; 10 µM)	kinase-Nluc reporter destabilization hit call ([13]; 10 µM)	kinase-Nluc reporter destabilization hit call ([14]; 10 µM)	kinase-Nluc reporter destabilization hit call ([15]; 10 µM)	kinase-Nluc reporter destabilization hit call ([16]; 10 µM)	kinase-Nluc reporter destabilization hit call ([17]; 10 µM)	kinase-Nluc reporter destabilization hit call ([18]; 10 µM)	kinase-Nluc reporter destabilization hit call ([19]; 10 µM)	kinase-Nluc reporter destabilization hit call ([20]; 10 µM)	kinase-Nluc reporter destabilization hit call ([1]; 2.5 µM)	kinase-Nluc reporter destabilization hit call ([2]; 2.5 µM)	kinase-Nluc reporter destabilization hit call ([3]; 2.5 µM)	kinase-Nluc reporter destabilization hit call ([4]; 2.5 µM)	kinase-Nluc reporter destabilization hit call ([5]; 2.5 µM)	kinase-Nluc reporter destabilization hit call ([6]; 2.5 µM)	kinase-Nluc reporter destabilization hit call ([7]; 2.5 µM)	kinase-Nluc reporter destabilization hit call ([8]; 2.5 µM)	kinase-Nluc reporter destabilization hit call ([9]; 2.5 µM)	kinase-Nluc reporter destabilization hit call ([10]; 2.5 µM)	kinase-Nluc reporter destabilization hit call ([11]; 2.5 µM)	kinase-Nluc reporter destabilization hit call ([12]; 2.5 µM)	kinase-Nluc reporter destabilization hit call ([13]; 2.5 µM)	kinase-Nluc reporter destabilization hit call ([14]; 2.5 µM)	kinase-Nluc reporter destabilization hit call ([15]; 2.5 µM)	kinase-Nluc reporter destabilization hit call ([16]; 2.5 µM)	kinase-Nluc reporter destabilization hit call ([17]; 2.5 µM)	kinase-Nluc reporter destabilization hit call ([18]; 2.5 µM)	kinase-Nluc reporter destabilization hit call ([19]; 2.5 µM)	kinase-Nluc reporter destabilization hit call ([20]; 2.5 µM)
O=C(c1ccc(F)c(F)c1Nc1ccc(I)cc1F)N1CC(O)([C@@H]2CCCCN2)C1 [Cobimetinib (hemifumarate)]	inactive: 0	inactive: 0	inactive: 0	inactive: 0	inactive: 0	inactive: 0	inactive: 0	inactive: 0	inactive: 0	inactive: 0	inactive: 0	inactive: 0	inactive: 0	inactive: 0	inactive: 0	inactive: 0	inactive: 0	inactive: 0	inactive: 0	inactive: 0																				
COc1ccc(S(=O)(=O)Nc2ccccc2CN(C)C/C=C/c2ccc(Cl)cc2)cc1 [KN-92 (hydrochloride)]																					inactive: 0	inactive: 0	inactive: 0	inactive: 0	inactive: 0	inactive: 0	inactive: 0	inactive: 0	inactive: 0	inactive: 0	inactive: 0	inactive: 0	inactive: 0	inactive: 0	inactive: 0	inactive: 0	inactive: 0	inactive: 0	inactive: 0	inactive: 0
COc1cc2nccc(Nc3cc(OC)c(OC)c(OC)c3)c2cc1OC [GAK inhibitor 49]	inactive: 0	inactive: 0	inactive: 0	inactive: 0	inactive: 0	inactive: 0	inactive: 0	inactive: 0	inactive: 0	inactive: 0	inactive: 0	inactive: 0	inactive: 0	inactive: 0	inactive: 0	inactive: 0	inactive: 0	inactive: 0	inactive: 0	inactive: 0																				
CN(C)C(=O)c1cc2cnc(Nc3ccc(N4CCNCC4)cn3)nc2n1C1CCCC1 [Ribociclib succinate]	inactive: 0	inactive: 0	inactive: 0	inactive: 0	inactive: 0	inactive: 0	inactive: 0	inactive: 0	inactive: 0	inactive: 0	inactive: 0	inactive: 0	inactive: 0	inactive: 0	inactive: 0	inactive: 0	inactive: 0	inactive: 0	inactive: 0	inactive: 0																				
COc1ccnc(C[S+]([O-])c2nc3cc(-n4cccc4)ccc3[nH]2)c1C (stereo not given) [Ilaprazole]	inactive: 0	inactive: 0	inactive: 0	inactive: 0	inactive: 0	inactive: 0	inactive: 0	inactive: 0	inactive: 0	inactive: 0	inactive: 0	inactive: 0	inactive: 0	inactive: 0	inactive: 0	inactive: 0	inactive: 0	inactive: 0	inactive: 0	inactive: 0																				
CN(C)C(=N)NC(=N)N [Metformin]	inactive: 0	inactive: 0	inactive: 0	inactive: 0	inactive: 0	inactive: 0	inactive: 0	inactive: 0	inactive: 0	inactive: 0	inactive: 0	inactive: 0	inactive: 0	inactive: 0	inactive: 0	inactive: 0	inactive: 0	inactive: 0	inactive: 0	inactive: 0																				
C=CC(=O)Nc1cc(Nc2nccc(-c3cn(C4CC4)c4ccccc34)n2)c(OC)cc1N(C)CCN(C)C [Almonertinib (hydrochloride)]																					inactive: 0	inactive: 0	inactive: 0	inactive: 0	inactive: 0	inactive: 0	inactive: 0	inactive: 0	active: 1	inactive: 0	inactive: 0	inactive: 0	inactive: 0	inactive: 0	inactive: 0	inactive: 0	inactive: 0	inactive: 0	inactive: 0	inactive: 0
CCS(=O)(=O)N1CCN(c2ccc(Nc3ncc(C(N)=O)c(NC4CC4)n3)cc2)CC1 [Cerdulatinib]	inactive: 0	inactive: 0	inactive: 0	inactive: 0	inactive: 0	inactive: 0	inactive: 0	inactive: 0	inactive: 0	inactive: 0	inactive: 0	inactive: 0	inactive: 0	inactive: 0	inactive: 0	active: 1	inactive: 0	inactive: 0	inactive: 0	inactive: 0																				
COc1cc2nccc(Nc3cc(OC)c(OC)c(OC)c3)c2cc1OC [GAK inhibitor 49 (hydrochloride)]	inactive: 0	inactive: 0	inactive: 0	inactive: 0	inactive: 0	inactive: 0	inactive: 0	inactive: 0	inactive: 0	inactive: 0	inactive: 0	inactive: 0	inactive: 0	inactive: 0	inactive: 0	inactive: 0	inactive: 0	inactive: 0	inactive: 0	inactive: 0																				
